Test results as given in patent publication US20240360436A1.
Positions count from the first letter of the chain named. No constants are given. Whether binding was seen depends on the method and setting. Some results given as binding are weak or reduced against the parent protein; the word gives no strength.

B1: DDBK003-14 (Fab, V domains shown)
VH: QVQLVESGAEVKKPGSSVKVSCKASGGTFSASAISWVRQAPGQGLEWMGGIFPILGSANYAQKFQGRVTITADESTSTAYMELSSLRSEDTAVYYCARDLAGYNYGFFGYWGRGTLVTVSS
VL: DIQMTQSPSSVSASVGDRVTITCRASQGINSWLAWYQQKPGRAPKLLIYTASTLQSGVPSRFSGSGSGTDFTLTISSLQPEDFATYYCQQAKSFPLTFGGGTKVEIKR
B2: DDBK003-16 (Fab, V domains shown)
VH: B1 VH
VL: B1 VL with N30S, R42K, T50A, T53S, K92N, V104L
B3: DDBK004-9 (Fab, V domains shown)
VH: QVQLQQWGAGLLKPSETLSLTCAVYGGSFSGYYWSWIRQPPGKGLEWIGEINHSGSTNYNPSLKSRVTISVETSKNQFSLKLSSVTAADTAVYYCARDKWTWYFDLWGRGTLVTVSS
VL: EIVMTQSPASLAVSLGERATINCKSSQSVLYSPNNRNYLAWYQHKPGQAPKLLISWASTRESGVPDRFSGSGSGTDFTLTISSLQAEDVAVYYCQQYYGPPRTFGGGTKVEIKR

Legend:
[1] = target: CD40 antigen (biotin-label-free, AcroBio Cat #: CDO-H5253) (UniProt P25942); assay: ELISA on coated CD40 antigen, clone screening
[2] = target: Her3 antigen (UniProt P21860); assay: ELISA on Her3 antigen, clone screening

Row | Binder | binding [1] | binding [2]
1 | B1 | binds | 
2 | B2 | binds | 
3 | B3 |  | binds
